PMC8384837
The list shows a part of the results. At the low end of the ranking, values are background and their order means little.

Biological target: T1, PUM1 PUF domain R3-THE R4-TFR R7-NPG C935T + R936H + Q939E + N971T + H972F + Q975R + S1079N + N1080P + E1083G (UniProt Q14671)
T1 sequence: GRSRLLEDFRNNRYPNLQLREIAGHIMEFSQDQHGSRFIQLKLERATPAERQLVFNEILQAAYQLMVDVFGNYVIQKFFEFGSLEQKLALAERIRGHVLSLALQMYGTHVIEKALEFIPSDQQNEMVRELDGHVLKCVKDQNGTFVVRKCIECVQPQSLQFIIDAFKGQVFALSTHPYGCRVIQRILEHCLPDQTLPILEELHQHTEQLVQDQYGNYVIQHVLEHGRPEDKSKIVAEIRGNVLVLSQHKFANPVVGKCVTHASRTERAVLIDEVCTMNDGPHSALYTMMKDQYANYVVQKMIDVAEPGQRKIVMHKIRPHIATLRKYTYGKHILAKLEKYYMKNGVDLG
Conditions: yeast three-hybrid, YBZ-1, SC-Leu-His + 0.5 mM 3-AT, 4 days

Sequence | binding signal (log2 enrichment (interaction score))
GGCUAGAACUAGUGGAUCCCCCGGCGCCCGGCGGCUCGAGCCCGGGUAAGUGUACGAAGUCUGCAUGCCGCCGGGCGCCAUGCCUGCAGGUCGACUCUAGAAAACAUG | -2.33
GGCUAGAACUAGUGGAUCCCCCGGCGCCCGGCGGCUCGAGCCCGGGUAAGUUGAAAACGUCUGCAUGCCGCCGGGCGCCAUGCCUGCAGGUCGACUCUAGAAAACAUG | -2.04
GGCUAGAACUAGUGGAUCCCCCGGCGCCCGGCGGCUCGAGCCCGGGUAAGUAUAGCUAGUCUGCAUGCCGCCGGGCGCCAUGCCUGCAGGUCGACUCUAGAAAACAUG | < -2.94
GGCUAGAACUAGUGGAUCCCCCGGCGCCCGGCGGCUCGAGCCCGGGUAAGAUGAAAUCGUCUGCAUGCCGCCGGGCGCCAUGCCUGCAGGUCGACUCUAGAAAACAUG | -2.14
